Experimental data: PMC8643683, “Loss of full-length hnRNP R isoform impairs DNA damage response in motoneurons by inhibiting Yb1 recruitment to chromatin” (Nucleic Acids Research, 2021)

Chains of the proteins cited; added tags and fusions are not shown.
UniProt P67809: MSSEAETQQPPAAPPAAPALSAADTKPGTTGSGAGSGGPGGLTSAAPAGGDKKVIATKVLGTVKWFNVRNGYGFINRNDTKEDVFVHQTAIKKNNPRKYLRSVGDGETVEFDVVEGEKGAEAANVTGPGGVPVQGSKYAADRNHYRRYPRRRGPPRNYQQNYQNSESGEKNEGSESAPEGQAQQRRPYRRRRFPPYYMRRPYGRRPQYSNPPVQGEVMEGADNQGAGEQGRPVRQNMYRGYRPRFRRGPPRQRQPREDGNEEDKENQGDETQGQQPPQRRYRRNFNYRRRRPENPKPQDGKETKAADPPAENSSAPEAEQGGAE

B1: LARP7 (protein, UniProt Q4G0J3 1-582)
chain: METESGNQEKVMEEESTEKKKEVEKKKRSRVKQVLADIAKQVDFWFGDANLHKDRFLREQIEKSRDGYVDISLLVSFNKMKKLTTDGKLIARALRSSAVVELDLEGTRIRRKKPLGERPKDEDERTVYVELLPKNVNHSWIERVFGKCGNVVYISIPHYKSTGDPKGFAFVEFETKEQAAKAIEFLNNPPEEAPRKPGIFPKTVKNKPIPALRVVEEKKKKKKKKGRMKKEDNIQAKEENMDTSNTSISKMKRSRPTSEGSDIESTEPQKQCSKKKKKRDRVEASSLPEVRTGKRKRSSSEDAESLAPRSKVKKIIQKDIIKEASEASKENRDIEISTEEEKDTGDLKDSSLLKTKRKHKKKHKERHKMGEEVIPLRVLSKSEWMDLKKEYLALQKASMASLKKTISQIKSESEMETDSGVPQNTGMKNEKTANREECRTQEKVNATGPQFVSGVIVKIISTEPLPGRKQVRDTLAAISEVLYVDLLEGDTECHARFKTPEDAQAVINAYTEINKKHCWKLEILSGDHEQRYWQKILVDRQAKLNQPREKKRGTEKLITKAEKIRLAKTQQASKHIRFSEYD
B2: Khsrp (protein, UniProt Q92945 1-711)
chain: MSDYSTGGPPPGPPPPAGGGGGAGGAGGGPPPGPPGAGDRGGGGPGGGGPGGGSAGGPSQPPGGGGPGIRKDAFADAVQRARQIAAKIGGDAATTVNNSTPDFGFGGQKRQLEDGDQPESKKLASQGDSISSQLGPIHPPPRTSMTEEYRVPDGMVGLIIGRGGEQINKIQQDSGCKVQISPDSGGLPERSVSLTGAPESVQKAKMMLDDIVSRGRGGPPGQFHDNANGGQNGTVQEIMIPAGKAGLVIGKGGETIKQLQERAGVKMILIQDGSQNTNVDKPLRIIGDPYKVQQACEMVMDILRERDQGGFGDRNEYGSRIGGGIDVPVPRHSVGVVIGRSGEMIKKIQNDAGVRIQFKQDDGTGPEKIAHIMGPPDRCEHAARIINDLLQSLRSGPPGPPGGPGMPPGGRGRGRGQGNWGPPGGEMTFSIPTHKCGLVIGRGGENVKAINQQTGAFVEISRQLPPNGDPNFKLFIIRGSPQQIDHAKQLIEEKIEGPLCPVGPGPGGPGPAGPMGPFNPGPFNQGPPGAPPHAGGPPPHQYPPQGWGNTYPQWQPPAPHDPSKAAAAAADPNAAWAAYYSHYYQQPPGPVPGPAPAPAAPPAQGEPPQPPPTGQSDYTKAWEEYYKKIGQQPQQPGAPPQQDYTKAWEEYYKKQAQVATGGGPGAPPGSQPDYSAAWAEYYRQQAAYYGQTPGPGGPQPPPTQQGQQQAQ

Legend:
[1] = target: T1, HA-tagged hnRNP R-FL (mouse) (UniProt Q8VHM5); test: affinity purification with mass spectrometry; #2 IP-MS: anti-HA magnetic beads, lysates of HEK293TN cells expressing hnRNP R-FL-HA, hnRNP R-ΔN-HA or EGFP-HA; lysis in the absence or presence of Benzonase (the sentence does not tell which)
T1 sequence: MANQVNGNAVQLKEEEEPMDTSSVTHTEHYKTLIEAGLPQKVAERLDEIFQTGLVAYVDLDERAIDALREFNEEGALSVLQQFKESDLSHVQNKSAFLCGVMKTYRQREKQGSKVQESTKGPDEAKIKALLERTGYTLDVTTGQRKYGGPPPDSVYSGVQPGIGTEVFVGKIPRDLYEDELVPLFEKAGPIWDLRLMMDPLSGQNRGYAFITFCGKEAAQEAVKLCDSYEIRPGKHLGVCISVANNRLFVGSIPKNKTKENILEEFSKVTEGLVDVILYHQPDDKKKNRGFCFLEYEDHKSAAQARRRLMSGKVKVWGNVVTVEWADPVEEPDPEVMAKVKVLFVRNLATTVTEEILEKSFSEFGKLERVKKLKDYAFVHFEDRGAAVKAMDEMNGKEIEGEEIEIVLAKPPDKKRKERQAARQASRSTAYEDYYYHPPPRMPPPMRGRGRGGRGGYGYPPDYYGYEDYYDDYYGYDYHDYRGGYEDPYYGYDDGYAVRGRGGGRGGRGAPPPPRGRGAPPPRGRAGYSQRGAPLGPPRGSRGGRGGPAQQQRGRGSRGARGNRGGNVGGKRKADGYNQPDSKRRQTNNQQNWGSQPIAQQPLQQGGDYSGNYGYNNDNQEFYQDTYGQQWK

[2] = target: T1, HA-tagged hnRNP R-FL (mouse); test: affinity purification with mass spectrometry; #2 IP-MS: anti-HA magnetic beads, lysates of HEK293TN cells expressing hnRNP R-FL-HA, hnRNP R-ΔN-HA or EGFP-HA, 0 Gy or 9 Gy, in the absence of Benzonase

| Molecule | binding [1] | binding [2] |
| --- | --- | --- |
| Y-box binding protein 1 (Yb1), endogenous in HEK293TN cells (from UniProt P67809 1-324) | binds |  |
| B1 |  | binds |
| B2 |  | binds |

These are yes or no findings as the source states them, for the method shown. Binding seen in cells or lysates may run through a third protein. These calls come from enrichment with a bait or labelling near it, and not all partners need be listed. Tags and fused reporters may be left off the sequences shown.
